Data: patent US8367612B2, “Compositions containing, methods involving, and uses of non-natural amino acids and polypeptides” (Ambrx, Inc., priority 2004, dated 2013)
At least one read-out could not be matched to a standard name with certainty.

Assay: Pharmacokinetic studies, single s.c. dose in rats, plasma concentration by growth hormone ELISA
Assay type: in vivo
Conditions: single-dose 1 mg/kg bolus s.c., normal male Sprague-Dawley rats; average
Protocol: Pharmacokinetic properties of PEG-modified growth hormone compounds were compared to each other and to nonPEGylated growth hormone in male Sprague-Dawley rats (261-425 g) obtained from Charles River Laboratories. Catheters were surgically installed into the carotid artery for blood collection. Following successful catheter installation, animals were assigned to treatment groups (three to six per group) prior to dosing. Animals were dosed subcutaneously with 1 mg/kg of compound in a dose volume of 0.41-0.55 ml/kg. Blood samples were collected at various time points via the indwelling catheter and into EDTA-coated microfuge tubes. Plasma was collected after centrifugation, and stored at −80° C. until analysis. Compound concentrations were measured using antibody sandwich growth hormone ELISA kits from either BioSource International (Camarillo, Calif.) or Diagnostic Systems Laboratories (Webster, Tex.). Concentrations were calculated using standards corresponding to the analog that was dosed. Pharmacokinetic parameters were estimated using the modeling program WinNonlin (Pharsight, version 4.1). Noncompartmental analysis with linear-up/log-down trapezoidal integration was used, and concentration data was uniformly weighted.
Plasma concentrations were obtained at regular intervals following a single subcutaneous dose in rats. […] Plasma samples were taken over the regular time intervals and assayed for injected compound as described. […] Concentration vs time curves were evaluated by noncompartmental analysis (Pharsight, version 4.1). Values shown are averages (+/− standard deviation). Cmax: maximum concentration; terminal t1/2: terminal half-life; AUC0→inf: area under the concentration-time curve extrapolated to infinity; MRT: mean residence time; Cl/f: apparent total, plasma clearance; Vz/f: apparent volume of distribution during terminal phase.

Substance | Vz/f
30KPEG-pAF143(his)hGH: "His-tagged hGH polypeptide comprising non-natural amino acid p-acetyl-phenylalanine covalently linked to 30 kDa PEG at each of six different positions" | 526 mL/kg
30KPEG-pAF131(his)hGH: "His-tagged hGH polypeptide comprising non-natural amino acid p-acetyl-phenylalanine covalently linked to 30 kDa PEG at each of six different positions" | 1,039 ml/kg
30KPEG-pAF35(his)hGH: "hGH polypeptides comprising p-acetyl-phenylalanine covalently-linked to 30 kDa PEG at positions 35 and 92" (position 35, His-tagged) | 268 mL/kg
30KPEG-pAF145(his)hGH: "His-tagged hGH polypeptide comprising non-natural amino acid p-acetyl-phenylalanine covalently linked to 30 kDa PEG at each of six different positions" | 743 mL/kg
30KPEG-pAF134(his)hGH: "His-tagged hGH polypeptide comprising non-natural amino acid p-acetyl-phenylalanine covalently linked to 30 kDa PEG at each of six different positions" | 931 mL/kg
